No constants are given. Whether binding was seen depends on the method and setting. Binding seen in cells or lysates may run through a third protein. Some results given as binding are weak or reduced against the parent protein; the word gives no strength. Where a sequence is shown, tags or fusion partners need not be part of it.

Amino acid sequences for entries named in this document (tags omitted).
UniProt P05780: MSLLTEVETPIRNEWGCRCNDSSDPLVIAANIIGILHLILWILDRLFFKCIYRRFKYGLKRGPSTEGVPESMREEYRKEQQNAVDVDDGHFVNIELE

The target in this test is T1, Flag-MARCH8 (human membrane-associated RING-CH 8) (human) (UniProt Q5T0T0).
T1 sequence: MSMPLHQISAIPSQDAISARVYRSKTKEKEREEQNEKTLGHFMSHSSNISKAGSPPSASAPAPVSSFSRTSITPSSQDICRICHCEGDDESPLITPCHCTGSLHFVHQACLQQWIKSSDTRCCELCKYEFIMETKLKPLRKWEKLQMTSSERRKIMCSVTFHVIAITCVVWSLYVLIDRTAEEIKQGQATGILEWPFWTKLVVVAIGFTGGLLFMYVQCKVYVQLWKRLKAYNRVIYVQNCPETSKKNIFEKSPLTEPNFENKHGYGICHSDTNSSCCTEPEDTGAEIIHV
Kind of test: co-IP.

On to “Influenza A virus M2 protein (from UniProt P05780 1-97)”, for which the binding entry was “binds”.

The record behind these values is PMC8292393.
